In doi:10.1101/2025.10.27.684836 (bioRxiv, 2025) one finds binding data, which are given here for 3 molecules.

The chains behind the UniProt entries cited, without tags or fusion partners. Where a name states a change or a piece, a line headed by the entry shows the natural chain unless it says otherwise.
UniProt Q8BX22, whole entry: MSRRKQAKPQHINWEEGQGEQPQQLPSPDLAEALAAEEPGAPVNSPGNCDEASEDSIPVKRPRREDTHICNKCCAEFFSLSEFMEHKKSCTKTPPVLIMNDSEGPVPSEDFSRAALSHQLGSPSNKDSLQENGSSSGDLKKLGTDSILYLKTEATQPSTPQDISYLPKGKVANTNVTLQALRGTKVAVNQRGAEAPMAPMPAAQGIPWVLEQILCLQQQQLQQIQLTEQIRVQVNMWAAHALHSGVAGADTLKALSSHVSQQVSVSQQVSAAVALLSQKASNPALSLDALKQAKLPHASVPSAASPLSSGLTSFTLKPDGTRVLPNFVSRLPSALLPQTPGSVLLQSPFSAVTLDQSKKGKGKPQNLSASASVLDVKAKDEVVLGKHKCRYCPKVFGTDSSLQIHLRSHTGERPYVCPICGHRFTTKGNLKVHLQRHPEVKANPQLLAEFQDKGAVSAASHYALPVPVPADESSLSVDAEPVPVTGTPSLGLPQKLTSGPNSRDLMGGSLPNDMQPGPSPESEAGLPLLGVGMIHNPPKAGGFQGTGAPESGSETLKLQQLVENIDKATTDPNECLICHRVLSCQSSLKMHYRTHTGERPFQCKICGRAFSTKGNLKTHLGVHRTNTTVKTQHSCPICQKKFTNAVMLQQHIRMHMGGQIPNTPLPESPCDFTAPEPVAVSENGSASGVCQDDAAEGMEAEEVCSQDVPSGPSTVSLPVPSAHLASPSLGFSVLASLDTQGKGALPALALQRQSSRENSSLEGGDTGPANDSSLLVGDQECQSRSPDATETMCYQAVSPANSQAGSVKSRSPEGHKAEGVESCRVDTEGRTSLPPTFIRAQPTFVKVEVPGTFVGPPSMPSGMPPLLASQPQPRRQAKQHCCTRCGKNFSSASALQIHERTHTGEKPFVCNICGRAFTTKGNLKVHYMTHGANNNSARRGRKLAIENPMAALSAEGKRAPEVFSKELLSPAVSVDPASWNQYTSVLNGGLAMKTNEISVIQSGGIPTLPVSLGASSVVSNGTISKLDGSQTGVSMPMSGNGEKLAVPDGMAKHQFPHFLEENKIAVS

Experiment in all cases: co-IP
Experiment [1] concerns the target 3xFlag-tagged SALL4 full-length (SALL4a) (mouse) (UniProt Q8BX22).
Experiment [2] addresses T1, human SALL1 N-terminal fragment S1Nmut (I241P) with C-terminal GFP 3xFlag tags (human) (UniProt Q9NSC2).
T1 sequence: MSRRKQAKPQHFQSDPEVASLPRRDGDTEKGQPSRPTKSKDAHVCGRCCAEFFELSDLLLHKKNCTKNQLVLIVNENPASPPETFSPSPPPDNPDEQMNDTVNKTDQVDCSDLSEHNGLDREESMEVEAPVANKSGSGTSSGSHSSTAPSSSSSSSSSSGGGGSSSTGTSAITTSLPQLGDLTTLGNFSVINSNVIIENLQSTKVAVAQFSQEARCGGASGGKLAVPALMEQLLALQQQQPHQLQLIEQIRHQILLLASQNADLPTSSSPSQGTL

The target in experiment [3] is SALL4 (endogenous, wild type) (mouse (endogenous in ESCs)) (UniProt Q8BX22).
Experiment [4] addresses SALL4 QIDmut (endogenous, L221P) (mouse (endogenous in ESCs)) (UniProt Q8BX22).
Experiment [5] concerns the target 3xFlag-tagged SALL4 full-length (SALL4a) (mouse) (UniProt Q8BX22). This is another data set of the same source.
The target of experiment [6] is T1, human SALL1 N-terminal fragment S1Nmut (I241P) with C-terminal GFP 3xFlag tags (human). The source holds these as a separate data set.

Where two headings read alike, the source gives them in different places. No constants are given. Whether binding was seen depends on the method and setting. Binding seen in cells or lysates may run through a third protein. Some results given as binding are weak or reduced against the parent protein; the word gives no strength. For part of these data: Where a sequence is shown, tags or fusion partners need not be part of it.

Take “HA-tagged SALL4 full-length (from UniProt Q8BX22 1-1067)”: the binding entry in experiment [1] is recorded as “binds”.

Take “SALL4-mScarlet3 fusion protein (endogenously tagged) (from UniProt Q8BX22 1-1067)”: in experiment [2], the binding result is reported as “no binding”.

B1: SALL1 (endogenous) (protein, UniProt Q9ER74 1-1322)
chain: MSRRKQAKPQHFQSDPEVASLPRRDGDTEKGQPSRPTKSKDAHVCGRCCAEFFELSDLLLHKKSCTKNQLVLIVNESPASPAKTFPPGPSLNDPDDQMKDAANKADQEDCSDLSEPKGLDREESMEVEVPVATTTTTTTGGSGGSGGSTLSGVTNITTPSCHSGCSSGTSAITTSLPQLGDLTTLGNFSVINSNVIIENLQSTKVAVAQFSQEARCGGASGGKLLISTLMEQLLALQQQQIHQLQLIEQIRHQILLLASQSADLPAAPSIPSQGTLRTSANPLTTLSSHLSQQLAVAAGLAQSLASQSANISGVKQLPHVQLPQSSSGTSIVPPSGGTSPNMSIVTAAVPTPSSEKVASNAGASHVSSPAVSASSSPAFAISSLLSPESNPLLPQPTPANAVFPTPLPNIATTAEDLNSLSALAQQRKSKPPNVTAFEAKSTSDEAFFKHKCRFCAKVFGSDSALQIHLRSHTGERPFKCNICGNRFSTKGNLKVHFQRHKEKYPHIQMNPYPVPEHLDNVPTSTGIPYGMSIPSEKPVTSWLDTKPVLPTLTTSVGLPLPPTLPSLTPFIKTEEPAPIPISHSAASPQGSVKSDSGAPDLATRNPSGVPEEVEGSAVPPFGGKGEESNMASSAVPTAGNSTLNSPVADGGPGGTTFTNPLLPLMSEQFKAKFPFGGLLDSAQASETSKLQQLVENIDKKATDPNECIICHRVLSCQSALKMHYRTHTGERPFKCKICGRAFTTKGNLKTHYSVHRAMPPLRVQHSCPICQKKFTNAVVLQQHIRMHMGGQIPNTPVPDNYPESMESDTGSFDEKNFDDLDNFSDENMEECPEGSIPDTPKSADASQDSLSSSPLPLEMSSIAALENQMKMINAGLAEQLQASLKSVENGSMEGDVLTNDSSSVGGDMESQSAGSPAISESTSSMQALSPSNSTQEFHKSPGMEEKPQRVGPGEFANGLSPTPVNGGALDLTSSHAEKIIKEDSLGILFPFRDRGKFKNTACDICGKTFACQSALDIHYRSHTKERPFICTVCNRGFSTKGNLKQHMLTHQMRDLPSQLFEPSSNLGPNQNSAVIPANSLSSLIKTEVNGFVHVSPQDSKDAPTSHVPQGPLSSSATSPVLLPALPRRTPKQHYCNTCGKTFSSSSALQIHERTHTGEKPFACTICGRAFTTKGNLKVHMGTHMWNSTPARRGRRLSVDGPMTFLGGNPVKFPEMFQKDLAARSGSGDPSSFWNQYTAALSNGLAMKANEISVIQNGGIPPIPGSLGSGSSPISGLTGNVEKLGNSEPSAPLAGLEKMASSENGTNFRFTRFVEDSKEIVTS
As to B1, the binding result in experiment [3] was “binds”; in experiment [4], “no binding”; in experiment [5], “binds”; in experiment [6], “no binding”.
